Test [1] addresses T1, human ELP456 sub-complex (human) (UniProt Q96EB1+Q8TE02+Q0PNE2).
T1 sequence 1: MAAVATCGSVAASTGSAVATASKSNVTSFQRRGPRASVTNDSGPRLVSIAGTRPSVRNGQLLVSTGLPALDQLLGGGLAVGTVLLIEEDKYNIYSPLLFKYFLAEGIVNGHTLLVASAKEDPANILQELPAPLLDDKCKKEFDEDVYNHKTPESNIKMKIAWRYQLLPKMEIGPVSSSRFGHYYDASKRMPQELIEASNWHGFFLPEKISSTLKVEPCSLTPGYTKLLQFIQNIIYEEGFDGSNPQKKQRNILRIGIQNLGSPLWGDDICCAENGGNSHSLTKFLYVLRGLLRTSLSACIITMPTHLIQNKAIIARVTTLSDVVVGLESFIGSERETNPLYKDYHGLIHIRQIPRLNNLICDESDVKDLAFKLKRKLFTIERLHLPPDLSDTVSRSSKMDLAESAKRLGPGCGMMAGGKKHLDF
T1 sequence 2: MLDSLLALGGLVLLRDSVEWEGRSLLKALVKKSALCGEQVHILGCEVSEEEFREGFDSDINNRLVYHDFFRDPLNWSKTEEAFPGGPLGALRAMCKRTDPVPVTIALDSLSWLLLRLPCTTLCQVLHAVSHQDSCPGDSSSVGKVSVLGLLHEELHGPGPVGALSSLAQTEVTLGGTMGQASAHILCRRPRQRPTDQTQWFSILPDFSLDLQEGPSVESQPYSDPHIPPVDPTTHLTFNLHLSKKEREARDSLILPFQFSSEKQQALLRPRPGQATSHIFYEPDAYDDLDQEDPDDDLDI
T1 sequence 3: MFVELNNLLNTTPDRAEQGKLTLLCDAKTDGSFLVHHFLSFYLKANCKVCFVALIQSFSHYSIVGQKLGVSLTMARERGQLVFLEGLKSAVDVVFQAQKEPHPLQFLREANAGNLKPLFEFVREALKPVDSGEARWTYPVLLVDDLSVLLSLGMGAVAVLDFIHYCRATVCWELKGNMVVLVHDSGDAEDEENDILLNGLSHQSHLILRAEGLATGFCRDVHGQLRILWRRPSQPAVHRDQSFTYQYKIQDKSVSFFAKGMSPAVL
Briefly: pull-down; ELP456 immobilised via tagged ELP6 (methods: Anti-DYKDDDDK resin, FLAG; legend: IgG beads, Prot A), incubated with ELP123 30 min at 4 °C, washed in 20 mM HEPES pH 7.5, 100 mM NaCl, 1 mM DTT, 0.05% Tween 20; SDS-PAGE, Coomassie; both purified.

Protein sequences, listed by entry. Tags and fused reporters are not part of them. Lines headed by an entry give the natural chain unless they say otherwise; changes in a name come on top.
UniProt O95163: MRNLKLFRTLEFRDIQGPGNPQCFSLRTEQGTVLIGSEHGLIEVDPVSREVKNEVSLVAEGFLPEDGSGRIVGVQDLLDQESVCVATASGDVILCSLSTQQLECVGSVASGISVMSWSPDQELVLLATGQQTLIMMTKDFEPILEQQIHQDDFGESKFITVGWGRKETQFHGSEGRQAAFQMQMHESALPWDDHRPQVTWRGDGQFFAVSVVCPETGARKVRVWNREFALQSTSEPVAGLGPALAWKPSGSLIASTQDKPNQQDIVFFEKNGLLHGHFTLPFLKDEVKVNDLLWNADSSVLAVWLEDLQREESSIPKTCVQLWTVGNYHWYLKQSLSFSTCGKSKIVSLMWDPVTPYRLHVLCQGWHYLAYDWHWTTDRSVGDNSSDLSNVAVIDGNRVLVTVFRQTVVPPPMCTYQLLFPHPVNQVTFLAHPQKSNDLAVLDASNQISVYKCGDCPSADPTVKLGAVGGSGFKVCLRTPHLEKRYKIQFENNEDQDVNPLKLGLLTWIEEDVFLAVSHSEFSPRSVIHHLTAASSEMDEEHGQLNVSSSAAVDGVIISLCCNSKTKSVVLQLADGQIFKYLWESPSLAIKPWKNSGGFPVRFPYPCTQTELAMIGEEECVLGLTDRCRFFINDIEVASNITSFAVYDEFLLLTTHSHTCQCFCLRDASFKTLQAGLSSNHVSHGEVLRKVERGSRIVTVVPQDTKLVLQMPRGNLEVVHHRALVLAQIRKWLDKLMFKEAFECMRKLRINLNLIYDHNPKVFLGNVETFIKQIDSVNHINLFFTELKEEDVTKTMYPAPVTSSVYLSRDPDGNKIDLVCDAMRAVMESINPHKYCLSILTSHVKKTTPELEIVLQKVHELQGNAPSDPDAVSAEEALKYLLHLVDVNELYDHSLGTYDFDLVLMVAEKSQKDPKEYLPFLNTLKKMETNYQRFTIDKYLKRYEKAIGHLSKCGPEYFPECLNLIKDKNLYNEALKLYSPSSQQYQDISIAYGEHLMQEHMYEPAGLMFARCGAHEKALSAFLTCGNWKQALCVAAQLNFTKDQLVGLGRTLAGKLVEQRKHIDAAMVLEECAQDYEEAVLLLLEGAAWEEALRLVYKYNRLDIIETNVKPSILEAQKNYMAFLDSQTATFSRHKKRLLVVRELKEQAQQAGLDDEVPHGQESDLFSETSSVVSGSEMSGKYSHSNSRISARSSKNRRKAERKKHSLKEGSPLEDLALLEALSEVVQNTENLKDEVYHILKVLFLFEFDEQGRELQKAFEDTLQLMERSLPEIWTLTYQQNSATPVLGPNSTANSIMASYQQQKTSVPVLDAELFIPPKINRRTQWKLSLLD
UniProt Q6IA86: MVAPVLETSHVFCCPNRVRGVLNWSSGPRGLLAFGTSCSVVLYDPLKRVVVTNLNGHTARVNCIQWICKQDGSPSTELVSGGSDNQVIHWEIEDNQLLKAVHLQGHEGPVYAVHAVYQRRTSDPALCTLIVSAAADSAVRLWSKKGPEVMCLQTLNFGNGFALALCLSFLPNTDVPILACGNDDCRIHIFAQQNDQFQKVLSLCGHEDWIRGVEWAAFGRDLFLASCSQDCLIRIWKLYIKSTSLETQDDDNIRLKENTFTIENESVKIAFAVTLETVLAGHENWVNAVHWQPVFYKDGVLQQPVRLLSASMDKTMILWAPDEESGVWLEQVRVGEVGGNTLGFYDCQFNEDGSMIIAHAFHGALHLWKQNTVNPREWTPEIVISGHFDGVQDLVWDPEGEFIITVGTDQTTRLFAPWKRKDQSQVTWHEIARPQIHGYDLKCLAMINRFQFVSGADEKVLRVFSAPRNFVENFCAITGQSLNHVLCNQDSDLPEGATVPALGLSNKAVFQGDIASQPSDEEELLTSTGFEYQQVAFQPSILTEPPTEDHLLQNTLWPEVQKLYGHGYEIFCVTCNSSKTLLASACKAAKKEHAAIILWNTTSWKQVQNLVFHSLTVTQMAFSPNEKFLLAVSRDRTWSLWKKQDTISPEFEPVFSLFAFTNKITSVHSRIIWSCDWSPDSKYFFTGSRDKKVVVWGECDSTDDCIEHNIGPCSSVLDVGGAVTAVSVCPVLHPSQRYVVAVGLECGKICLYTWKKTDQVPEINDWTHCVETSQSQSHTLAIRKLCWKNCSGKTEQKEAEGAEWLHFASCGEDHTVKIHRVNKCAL
UniProt Q9H9T3: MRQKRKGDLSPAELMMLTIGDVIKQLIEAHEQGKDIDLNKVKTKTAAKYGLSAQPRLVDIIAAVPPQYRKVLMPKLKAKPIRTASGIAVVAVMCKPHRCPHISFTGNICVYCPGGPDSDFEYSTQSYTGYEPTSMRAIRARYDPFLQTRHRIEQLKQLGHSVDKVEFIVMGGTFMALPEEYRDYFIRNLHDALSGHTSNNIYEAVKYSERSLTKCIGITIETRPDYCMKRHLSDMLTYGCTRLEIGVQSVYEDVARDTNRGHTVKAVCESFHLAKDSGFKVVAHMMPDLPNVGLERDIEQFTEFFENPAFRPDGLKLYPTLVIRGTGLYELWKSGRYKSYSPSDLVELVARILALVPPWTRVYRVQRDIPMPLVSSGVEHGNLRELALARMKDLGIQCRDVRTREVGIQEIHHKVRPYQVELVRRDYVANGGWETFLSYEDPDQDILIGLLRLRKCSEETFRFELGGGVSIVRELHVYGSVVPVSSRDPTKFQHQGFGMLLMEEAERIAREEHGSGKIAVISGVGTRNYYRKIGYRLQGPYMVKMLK

Test [2] deals with human ELP1_(K815T)23 sub-complex (human) (UniProt O95163+Q6IA86+Q9H9T3). Briefly: pull-down; ELP123 immobilised on Dynabeads MyOne Streptavidin C1 via Twin-Strep-tagged ELP3, incubated with ELP456 30 min at 4 °C, washed in 20 mM HEPES pH 7.5, 100 mM NaCl, 1 mM DTT, 0.05% Tween 20; SDS-PAGE, Coomassie; both purified.
Test [3] deals with human ELP123 sub-complex (wild type) (human) (UniProt O95163+Q6IA86+Q9H9T3). The test is described as above.

These are yes or no findings as the source states them, for the method shown. Some entries that bind do so weakly or less than the wild type.

For “human ELP1_(K815T)23 sub-complex (from UniProt O95163 1-1332; Q6IA86 1-826; Q9H9T3 1-547)”, the binding result in test [1] was “binds”. As for “human ELP123 sub-complex (wild type) (from UniProt O95163 1-1332; Q6IA86 1-826; Q9H9T3 1-547)”, the binding result in test [1] is “binds”.

B1: human ELP456 sub-complex (complex, UniProt Q96EB1 1-424; Q8TE02 1-300; Q0PNE2 1-266)
chain 1: T1 sequence 1
chain 2: T1 sequence 2
chain 3: T1 sequence 3
Regarding B1, the binding entry in test [2] and in test [3] was “binds” each time.

(Values after PMC10290953, “A novel ELP1 mutation impairs the function of the Elongator complex and causes a severe neurodevelopmental phenotype” (Journal of Human Genetics, 2023).)
